Assay results taken from publication PMC6615629, “Hsp70-nucleotide exchange factor (NEF) Fes1 has non-NEF roles in degradation of gluconeogenic enzymes and cell wall integrity” (PLoS Genetics, 2019).
Results are given in words; binding and its absence hold for the method and conditions named. Where a sequence is shown, tags or fusion partners need not be part of it.

Protein sequences, listed by entry. Tags and fused reporters are not part of them.
UniProt P10591: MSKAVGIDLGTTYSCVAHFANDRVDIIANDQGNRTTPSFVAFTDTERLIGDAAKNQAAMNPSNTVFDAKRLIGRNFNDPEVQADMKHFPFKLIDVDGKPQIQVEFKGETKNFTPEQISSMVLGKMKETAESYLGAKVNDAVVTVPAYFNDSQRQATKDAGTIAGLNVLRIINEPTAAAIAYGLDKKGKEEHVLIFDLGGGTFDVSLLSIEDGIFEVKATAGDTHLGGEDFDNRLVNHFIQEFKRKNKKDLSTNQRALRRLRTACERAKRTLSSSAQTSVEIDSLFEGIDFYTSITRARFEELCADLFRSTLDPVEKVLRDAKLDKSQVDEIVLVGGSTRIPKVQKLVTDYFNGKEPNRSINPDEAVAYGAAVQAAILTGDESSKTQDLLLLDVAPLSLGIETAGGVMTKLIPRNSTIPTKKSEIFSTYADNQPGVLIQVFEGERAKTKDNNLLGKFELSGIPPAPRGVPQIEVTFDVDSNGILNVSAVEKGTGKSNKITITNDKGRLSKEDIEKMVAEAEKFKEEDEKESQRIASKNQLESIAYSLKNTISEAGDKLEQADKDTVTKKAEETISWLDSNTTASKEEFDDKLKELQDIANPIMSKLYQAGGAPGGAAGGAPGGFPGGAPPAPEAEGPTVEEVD

Target: T1, GST-Fes1^A79R,R195A (yeast (S. cerevisiae)) (UniProt P38260)
T1 sequence: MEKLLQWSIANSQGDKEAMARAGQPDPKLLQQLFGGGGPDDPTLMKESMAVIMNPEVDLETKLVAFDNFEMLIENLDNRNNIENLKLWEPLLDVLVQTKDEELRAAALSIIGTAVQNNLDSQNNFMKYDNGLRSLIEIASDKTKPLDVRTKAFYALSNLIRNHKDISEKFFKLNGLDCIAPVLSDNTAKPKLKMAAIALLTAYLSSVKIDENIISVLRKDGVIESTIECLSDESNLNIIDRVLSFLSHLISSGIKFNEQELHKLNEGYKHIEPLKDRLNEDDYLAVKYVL
Assay: pull-down; GST-Fes1 (wild type or mutant, or GST alone) pulled down on glutathione resin; reactions with two or all three proteins; 6 μg each of His6-Fbp1 (1.6 μM), Hsp70 (0.9 μM) and GST-Fes1 (1.09 μM), with or without ATP, ADP or AMP (2.5 mM); 50 mM Tris-HCl pH 7.5, 150 mM NaCl, 2% glycerol, 5 mM MgCl2; 30 min at 4°C; stained SDS-PAGE gels; both purified

In the case of Ssa1 (from UniProt P10591 1-642), the binding is reported as “no binding (tested: Hsp70 0.9 μM, GST-Fes1 1.09 μM)”.
